Values from PubChem BioAssay AID1259254 (NCATS, 2017).

- Aim: 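Gene knock-downs that lead to re-replication, shown by excess G2 DNA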 (primary screen)
- Cells: human HCT116 colorectal cancer cells
- Knock-down reagent: single siRNA against human genes
- Time to read-out: 3 days
- Measured: 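Imaged Hoechst DNA stain sorts each cell into a cycle phase by DNA amount; per plate, G2 fraction set to 0% for non-targeting and 100% for GMNN siRNA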
- Reading the numbers: G2 robust z-score and G2 cells, % of GMNN control: higher = more G2 cells, more excess DNA replication
- Hit rule: 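Active siRNAs have a G2 robust z of 5 or more median absolute deviations over the median, which in these data means about 38% or higher of GMNN control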
The whole screen tested about 59,000 reagents; shown is an unselected part. In the full data, about 1,550 (2.6%) are marked active. 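G2 share is only a proxy for re-replication; each gene was hit by three separate siRNAs, and active genes were retested.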 A number with no mark means an inactive call. Reagents against one gene are numbered here. Further read-outs or replicates are left out here. Not given: the amount of reagent.

target	reagent	G2 robust z-score	G2 cells, % of GMNN control
PSTPIP1	1	1.39	12.8
PSTPIP1	2	0.732	8.12
PSTPIP1	3	-0.324	0.687
HDAC4	1	0.433	6.02
HDAC4	2	-1.15	-5.11
HDAC4	3	-0.824	-2.83
HDAC4	4	1.18	11.3
HDAC4	5	-0.479	-0.405
HDAC4	6	-0.0024	2.95
CHCHD1	1	0.677	7.73
CHCHD1	2	0.547	6.82
CHCHD1	3	-0.977	-3.9
KRT15	1	1.76	15.4
KRT15	2	-1.43	-7.1
KRT15	3	0.474	6.3
PRR25	1	0.616	7.3
PRR25	2	0.333	5.31
PRR25	3	0.0921	3.62
COL5A1	1	0.195	4.34
COL5A1	2	-0.104	2.24
COL5A1	3	2.78	22.5
RETREG1	1	1.93	16.6
RETREG1	2	-0.423	-0.00734
RETREG1	3	-1.12	-4.91
CCDC146	1	-0.671	-1.75
CCDC146	2	-1.49	-7.5
CCDC146	3	-0.448	-0.183
GPR148	1	-0.441	-0.133
GPR148	2	0.763	8.33
GPR148	3	1.26	11.8
NLRP7	1	0.632	7.42
NLRP7	2	3.04	24.3
NLRP7	3	-0.634	-1.5
RIMS3	1	-1.22	-5.61
RIMS3	2	0.457	6.18
RIMS3	3	-0.541	-0.841

Part of the list above in another layout:
CCDC146 #1
- G2 robust z-score: -0.671
- G2 cells, % of GMNN control: -1.75

CCDC146 #2
- G2 robust z-score: -1.49
- G2 cells, % of GMNN control: -7.5

CCDC146 #3
- G2 robust z-score: -0.448
- G2 cells, % of GMNN control: -0.183

GPR148 #1
- G2 robust z-score: -0.441
- G2 cells, % of GMNN control: -0.133

The list goes on.
target	reagent	G2 robust z-score	G2 cells, % of GMNN control
FMNL1-DT	1	2.16	18.1
FMNL1-DT	2	0.135	3.92
FMNL1-DT	3	-0.834	-2.9
FLOT1	1	-0.926	-3.55
FLOT1	2	1.86	16.1
FLOT1	3	3	24
MAP2K4	1	-1.18	-5.34
MAP2K4	2	-1.17	-5.24
MAP2K4	3	2.28	19
CATSPER1	1	2.9	23.4
CATSPER1	2	0.0547	3.35
CATSPER1	3	-0.486	-0.453
HSPA4L	1	-0.477	-0.39
HSPA4L	2	0.0131	3.06
HSPA4L	3	1.27	11.9
ZNF833P	1	2.13	18
ZNF833P	2	-0.764	-2.41
ZNF833P	3	-1.11	-4.87
LINC02510	1	0.0361	3.22
LINC02510	2	-0.479	-0.404
LINC02510	3	-0.485	-0.443
SLC1A7	1	3.48	27.5
SLC1A7	2	0.512	6.57
SLC1A7	3	1.56	14
SDHAF3	1	-0.637	-1.51
SDHAF3	2	-0.488	-0.465
SDHAF3	3	-0.354	0.479
PUSL1	1	0.895	9.27
PUSL1	2	-0.168	1.78
PUSL1	3	0.88	9.16
ARHGAP44	1	0.0341	3.21
ARHGAP44	2	-0.753	-2.33
ARHGAP44	3	-1.2	-5.44
